Laboratory results from the supplement of paper PMC12819154, “High-throughput peptide-centric local stability assay extends protein–ligand identification to membrane proteins, tissues and bacteria” (Nature Structural & Molecular Biology, 2025).
The list shows a part of the results. Most entries show no effect beyond the scatter of the controls.

Protein sequences, listed by entry. Tags and fused reporters are not part of them. Lines headed by an entry give the natural chain unless they say otherwise; changes in a name come on top.
UniProt Q8R0F8: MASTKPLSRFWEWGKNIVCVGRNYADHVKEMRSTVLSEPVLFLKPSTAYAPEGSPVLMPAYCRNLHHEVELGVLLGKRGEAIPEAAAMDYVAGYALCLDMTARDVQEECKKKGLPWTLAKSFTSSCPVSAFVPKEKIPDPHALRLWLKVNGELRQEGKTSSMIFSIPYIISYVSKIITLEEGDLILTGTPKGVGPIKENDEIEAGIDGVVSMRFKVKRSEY
UniProt Q8R1J9: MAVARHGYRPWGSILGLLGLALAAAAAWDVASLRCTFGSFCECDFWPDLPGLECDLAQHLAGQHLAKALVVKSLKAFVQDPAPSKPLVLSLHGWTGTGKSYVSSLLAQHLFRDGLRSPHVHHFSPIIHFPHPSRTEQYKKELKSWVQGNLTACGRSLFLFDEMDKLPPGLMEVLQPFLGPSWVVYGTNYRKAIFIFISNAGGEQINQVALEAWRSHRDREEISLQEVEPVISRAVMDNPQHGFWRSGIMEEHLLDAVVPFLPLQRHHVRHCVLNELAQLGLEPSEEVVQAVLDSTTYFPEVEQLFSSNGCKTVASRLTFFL
UniProt Q8R2N2: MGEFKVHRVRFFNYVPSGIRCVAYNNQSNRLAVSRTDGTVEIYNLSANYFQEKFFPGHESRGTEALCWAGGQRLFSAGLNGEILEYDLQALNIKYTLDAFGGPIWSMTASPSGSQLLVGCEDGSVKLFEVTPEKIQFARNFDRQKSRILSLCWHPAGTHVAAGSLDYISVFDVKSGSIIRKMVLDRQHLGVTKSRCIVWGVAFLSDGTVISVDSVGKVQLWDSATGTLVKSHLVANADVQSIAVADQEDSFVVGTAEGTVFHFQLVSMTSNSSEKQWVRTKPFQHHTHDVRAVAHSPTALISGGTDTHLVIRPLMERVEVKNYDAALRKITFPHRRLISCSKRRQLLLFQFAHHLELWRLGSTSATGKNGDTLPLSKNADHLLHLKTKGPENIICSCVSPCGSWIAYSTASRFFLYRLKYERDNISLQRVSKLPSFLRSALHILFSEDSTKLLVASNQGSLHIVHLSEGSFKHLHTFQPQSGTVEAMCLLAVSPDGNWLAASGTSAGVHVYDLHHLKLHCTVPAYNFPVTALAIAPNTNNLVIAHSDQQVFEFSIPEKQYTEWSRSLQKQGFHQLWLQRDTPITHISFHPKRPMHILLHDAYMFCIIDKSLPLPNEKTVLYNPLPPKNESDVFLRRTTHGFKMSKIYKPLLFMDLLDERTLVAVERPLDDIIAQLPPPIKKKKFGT
UniProt Q8K371: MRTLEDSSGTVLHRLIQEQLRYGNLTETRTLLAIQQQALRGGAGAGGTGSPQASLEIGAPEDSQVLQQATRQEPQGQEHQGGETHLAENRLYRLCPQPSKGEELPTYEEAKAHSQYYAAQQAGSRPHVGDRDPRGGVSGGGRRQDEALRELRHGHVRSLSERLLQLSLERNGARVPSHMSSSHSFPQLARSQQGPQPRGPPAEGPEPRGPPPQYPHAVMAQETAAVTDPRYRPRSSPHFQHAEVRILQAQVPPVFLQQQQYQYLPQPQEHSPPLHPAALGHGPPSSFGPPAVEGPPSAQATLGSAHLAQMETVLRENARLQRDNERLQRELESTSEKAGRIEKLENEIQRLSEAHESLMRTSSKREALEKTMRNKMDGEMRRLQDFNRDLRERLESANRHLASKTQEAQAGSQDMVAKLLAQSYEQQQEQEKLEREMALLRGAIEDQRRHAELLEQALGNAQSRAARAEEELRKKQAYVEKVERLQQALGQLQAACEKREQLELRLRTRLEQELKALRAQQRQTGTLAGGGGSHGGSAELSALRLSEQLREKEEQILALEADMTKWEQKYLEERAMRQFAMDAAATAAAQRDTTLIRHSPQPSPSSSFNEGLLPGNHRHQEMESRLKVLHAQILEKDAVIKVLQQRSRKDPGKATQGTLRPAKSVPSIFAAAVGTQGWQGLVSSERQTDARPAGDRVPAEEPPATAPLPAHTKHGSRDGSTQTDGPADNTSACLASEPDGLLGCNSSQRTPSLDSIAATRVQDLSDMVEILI
UniProt Q8K354: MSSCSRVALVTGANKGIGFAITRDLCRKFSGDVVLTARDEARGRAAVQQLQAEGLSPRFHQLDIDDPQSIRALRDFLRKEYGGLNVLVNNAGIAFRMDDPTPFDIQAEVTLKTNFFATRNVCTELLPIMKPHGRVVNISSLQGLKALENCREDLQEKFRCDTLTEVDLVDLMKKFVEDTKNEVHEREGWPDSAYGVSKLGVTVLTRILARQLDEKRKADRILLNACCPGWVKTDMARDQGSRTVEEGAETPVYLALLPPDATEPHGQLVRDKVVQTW
UniProt Q8K3I9: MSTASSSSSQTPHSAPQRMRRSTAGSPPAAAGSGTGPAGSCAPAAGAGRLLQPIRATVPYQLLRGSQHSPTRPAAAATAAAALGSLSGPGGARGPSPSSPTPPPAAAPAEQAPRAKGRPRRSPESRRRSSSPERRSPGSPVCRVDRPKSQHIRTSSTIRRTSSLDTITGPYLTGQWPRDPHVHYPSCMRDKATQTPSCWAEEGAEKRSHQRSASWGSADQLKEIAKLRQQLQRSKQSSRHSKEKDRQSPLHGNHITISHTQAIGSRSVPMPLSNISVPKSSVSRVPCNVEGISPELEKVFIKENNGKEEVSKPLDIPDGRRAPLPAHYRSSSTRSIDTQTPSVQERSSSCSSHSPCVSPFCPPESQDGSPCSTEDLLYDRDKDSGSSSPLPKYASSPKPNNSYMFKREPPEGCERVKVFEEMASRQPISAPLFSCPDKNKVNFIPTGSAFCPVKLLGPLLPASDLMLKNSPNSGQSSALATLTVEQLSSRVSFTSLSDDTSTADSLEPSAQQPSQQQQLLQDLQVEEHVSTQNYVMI
UniProt Q8K411: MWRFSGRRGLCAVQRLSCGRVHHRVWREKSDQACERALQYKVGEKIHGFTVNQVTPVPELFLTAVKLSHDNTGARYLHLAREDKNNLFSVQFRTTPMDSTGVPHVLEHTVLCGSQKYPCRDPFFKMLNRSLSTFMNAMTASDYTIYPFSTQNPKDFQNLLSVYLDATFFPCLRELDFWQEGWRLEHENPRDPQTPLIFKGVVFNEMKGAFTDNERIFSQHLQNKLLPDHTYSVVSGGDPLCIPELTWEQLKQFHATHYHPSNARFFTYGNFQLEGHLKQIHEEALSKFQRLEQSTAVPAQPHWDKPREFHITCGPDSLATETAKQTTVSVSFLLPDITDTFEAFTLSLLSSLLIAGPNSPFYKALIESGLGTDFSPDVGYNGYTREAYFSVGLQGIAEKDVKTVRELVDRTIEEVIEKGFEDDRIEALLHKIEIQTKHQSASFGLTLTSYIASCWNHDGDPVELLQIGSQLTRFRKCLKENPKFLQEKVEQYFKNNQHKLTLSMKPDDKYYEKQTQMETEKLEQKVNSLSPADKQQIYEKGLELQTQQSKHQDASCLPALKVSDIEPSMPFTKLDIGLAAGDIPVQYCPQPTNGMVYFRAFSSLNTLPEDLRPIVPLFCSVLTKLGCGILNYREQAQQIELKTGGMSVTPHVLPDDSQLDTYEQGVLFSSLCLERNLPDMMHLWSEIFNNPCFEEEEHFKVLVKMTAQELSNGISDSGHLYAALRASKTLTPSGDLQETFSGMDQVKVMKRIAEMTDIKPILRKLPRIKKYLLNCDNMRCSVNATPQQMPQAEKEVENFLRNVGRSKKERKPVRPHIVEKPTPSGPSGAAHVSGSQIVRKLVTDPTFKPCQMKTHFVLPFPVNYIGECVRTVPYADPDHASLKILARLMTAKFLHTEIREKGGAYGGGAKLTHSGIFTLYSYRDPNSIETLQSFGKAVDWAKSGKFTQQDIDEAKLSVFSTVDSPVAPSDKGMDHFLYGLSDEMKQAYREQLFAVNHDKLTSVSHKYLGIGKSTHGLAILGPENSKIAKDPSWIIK
UniProt Q8R015: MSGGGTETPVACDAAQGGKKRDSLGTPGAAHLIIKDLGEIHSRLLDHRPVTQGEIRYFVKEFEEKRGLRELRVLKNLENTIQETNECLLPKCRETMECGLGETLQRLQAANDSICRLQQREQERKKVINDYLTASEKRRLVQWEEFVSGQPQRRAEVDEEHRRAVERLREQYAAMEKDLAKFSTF
UniProt Q8K1X4: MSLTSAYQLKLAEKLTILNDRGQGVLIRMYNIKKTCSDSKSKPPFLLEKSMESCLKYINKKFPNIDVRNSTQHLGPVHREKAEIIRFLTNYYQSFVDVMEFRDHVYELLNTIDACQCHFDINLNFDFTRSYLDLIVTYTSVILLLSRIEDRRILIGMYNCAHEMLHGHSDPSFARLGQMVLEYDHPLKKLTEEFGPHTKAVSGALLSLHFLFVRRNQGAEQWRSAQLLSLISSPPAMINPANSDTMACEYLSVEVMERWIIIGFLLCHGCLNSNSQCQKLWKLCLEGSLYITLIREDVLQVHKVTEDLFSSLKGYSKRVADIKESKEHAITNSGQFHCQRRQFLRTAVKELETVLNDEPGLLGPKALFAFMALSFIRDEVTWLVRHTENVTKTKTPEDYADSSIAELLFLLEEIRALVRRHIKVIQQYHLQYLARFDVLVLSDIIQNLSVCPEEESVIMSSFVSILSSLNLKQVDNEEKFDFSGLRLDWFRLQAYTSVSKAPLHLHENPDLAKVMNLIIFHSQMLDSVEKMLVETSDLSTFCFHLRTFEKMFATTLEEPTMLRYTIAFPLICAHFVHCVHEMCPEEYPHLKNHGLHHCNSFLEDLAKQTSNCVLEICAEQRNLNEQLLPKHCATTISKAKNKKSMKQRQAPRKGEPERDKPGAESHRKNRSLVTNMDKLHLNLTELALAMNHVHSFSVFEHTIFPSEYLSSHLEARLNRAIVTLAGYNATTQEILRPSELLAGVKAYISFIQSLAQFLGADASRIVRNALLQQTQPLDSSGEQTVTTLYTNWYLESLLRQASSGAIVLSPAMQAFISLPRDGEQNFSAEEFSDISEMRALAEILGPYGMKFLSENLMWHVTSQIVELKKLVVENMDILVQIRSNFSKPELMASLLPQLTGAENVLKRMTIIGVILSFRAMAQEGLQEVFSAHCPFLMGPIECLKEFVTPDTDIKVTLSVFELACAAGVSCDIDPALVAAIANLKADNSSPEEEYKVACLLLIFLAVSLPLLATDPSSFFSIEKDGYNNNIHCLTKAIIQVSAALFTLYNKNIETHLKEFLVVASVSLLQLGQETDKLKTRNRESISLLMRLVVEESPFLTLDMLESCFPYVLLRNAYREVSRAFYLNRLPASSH
UniProt Q8QZZ8: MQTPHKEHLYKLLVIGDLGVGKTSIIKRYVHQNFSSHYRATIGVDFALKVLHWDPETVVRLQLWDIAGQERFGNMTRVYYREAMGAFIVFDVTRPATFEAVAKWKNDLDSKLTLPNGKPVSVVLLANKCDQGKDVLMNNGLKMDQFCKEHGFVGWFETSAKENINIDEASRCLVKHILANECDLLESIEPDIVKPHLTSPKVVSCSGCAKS
UniProt Q8R0C0: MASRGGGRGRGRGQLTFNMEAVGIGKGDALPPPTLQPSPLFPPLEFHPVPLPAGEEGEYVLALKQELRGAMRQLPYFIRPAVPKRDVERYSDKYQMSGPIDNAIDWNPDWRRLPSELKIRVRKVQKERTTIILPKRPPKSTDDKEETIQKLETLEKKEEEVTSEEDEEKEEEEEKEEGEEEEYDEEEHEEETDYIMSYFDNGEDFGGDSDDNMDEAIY
UniProt Q8K337: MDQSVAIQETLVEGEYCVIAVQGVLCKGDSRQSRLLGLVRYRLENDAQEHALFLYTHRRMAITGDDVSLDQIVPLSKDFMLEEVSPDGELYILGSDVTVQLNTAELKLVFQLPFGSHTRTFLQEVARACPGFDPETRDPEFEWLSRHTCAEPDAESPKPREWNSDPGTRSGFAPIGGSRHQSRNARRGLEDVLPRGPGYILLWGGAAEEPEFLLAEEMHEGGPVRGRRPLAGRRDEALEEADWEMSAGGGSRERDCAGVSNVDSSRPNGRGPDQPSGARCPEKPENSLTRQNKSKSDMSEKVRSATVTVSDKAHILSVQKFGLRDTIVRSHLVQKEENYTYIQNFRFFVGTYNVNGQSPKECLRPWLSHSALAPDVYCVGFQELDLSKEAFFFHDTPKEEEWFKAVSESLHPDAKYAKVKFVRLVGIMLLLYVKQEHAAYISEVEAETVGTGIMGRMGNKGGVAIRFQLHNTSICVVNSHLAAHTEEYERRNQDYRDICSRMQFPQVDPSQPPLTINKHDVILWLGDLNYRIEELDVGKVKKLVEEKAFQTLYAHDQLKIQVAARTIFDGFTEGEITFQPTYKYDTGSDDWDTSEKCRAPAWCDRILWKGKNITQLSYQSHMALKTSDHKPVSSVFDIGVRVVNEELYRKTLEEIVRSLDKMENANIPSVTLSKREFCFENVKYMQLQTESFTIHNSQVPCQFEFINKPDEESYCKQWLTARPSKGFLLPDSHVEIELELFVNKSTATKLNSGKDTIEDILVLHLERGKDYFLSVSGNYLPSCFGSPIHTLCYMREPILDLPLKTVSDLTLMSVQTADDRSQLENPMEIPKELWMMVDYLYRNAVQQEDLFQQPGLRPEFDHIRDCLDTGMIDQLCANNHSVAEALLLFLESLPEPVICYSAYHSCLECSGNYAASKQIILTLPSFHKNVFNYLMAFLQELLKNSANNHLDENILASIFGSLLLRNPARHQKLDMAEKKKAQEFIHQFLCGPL

What follows are targets tested with CN[C@@H]1C[C@H]2O[C@@](C)([C@@H]1OC)n1c3ccccc3c3c4c(c5c6ccccc6n2c5c31)C(=O)NC4 [staurosporine] (assay: log2 fold change of tryptic peptide abundance, ligand vs vehicle (limited proteolysis) (log2 ratio); higher = more trypsin-susceptible (destabilized)). Settings: ligand concentration: 20 uM; sample: mouse liver crude lysate; replicate design: treated separately.

Target | log2 fold change
UniProt Q8R0F8 (peptide sequence: IPDPHALR, peptide start residue: 143) | 0.248
UniProt Q8K2H2 (peptide sequence: HREELEQLK, peptide start residue: 63) | 0.0839
UniProt Q8K126 (peptide sequence: SLNKQDEK, peptide start residue: 140) | -0.358
UniProt Q8R1J9 (peptide sequence: AVMDNPQHGFWR, peptide start residue: 234) | 0.11
UniProt Q8R0S1 (peptide sequence: TVDEDPDERR, peptide start residue: 326) | -0.223
UniProt Q8K4L0 (peptide sequence: ALILSPTR, peptide start residue: 168) | 0.357
UniProt Q8R071 (peptide sequence: TYLEEELTK, peptide start residue: 267) | -0.176
UniProt Q8R079 (peptide sequence: EKWEGFPK, peptide start residue: 75) | -0.348
UniProt Q8R0T6 (peptide sequence: LDQAHSVSQE, peptide start residue: 533) | -0.0122
UniProt Q8R2N2 (peptide sequence: DTPITHISFHPK, peptide start residue: 580) | 0.415
UniProt Q8R0A0 (peptide sequence: VVTTNYKPVANHQYNIEYER, peptide start residue: 148) | 0.23
UniProt Q8K1H7 (peptide sequence: SSSPASTSPPR, peptide start residue: 48) | -0.232
UniProt Q8R0S2 (peptide sequence: GVVRPSMSQCSSLK, peptide start residue: 879) | -0.512
UniProt Q8K214 (peptide sequence: ILIPHPTSTPSK, peptide start residue: 286) | 0.152
UniProt Q8K2A1 (peptide sequence: ISFCADDKTDKR, peptide start residue: 98) | -0.325
UniProt Q8K4G1 (peptide sequence: AGPDLASCLDIDECRER, peptide start residue: 994) | -0.32
UniProt Q8K371 (peptide sequence: TPSLDSIAATR, peptide start residue: 750) | 0.61
UniProt Q8K354 (peptide sequence: FHQLDIDDPQSIR, peptide start residue: 59) | 0.202
UniProt Q8K3I9 (peptide sequence: QPISAPLFSCPDKNK, peptide start residue: 426) | 0.173

As entered above.
UniProt Q8R1J9 (peptide sequence: AVMDNPQHGFWR, peptide start residue: 234) | log2 fold change: 0.11
UniProt Q8R0A0 (peptide sequence: VVTTNYKPVANHQYNIEYER, peptide start residue: 148) | log2 fold change: 0.23

Remaining list, next part:

Target | log2 fold change
UniProt Q8K3W3 (peptide sequence: SAETLKHEASYR, peptide start residue: 336) | 0.231
UniProt Q8R086 (peptide sequence: VVVPGVVGAR, peptide start residue: 368) | -0.217
UniProt Q8R0G9 (peptide sequence: GSESMVFETTTKNETVAHEDKTK, peptide start residue: 497) | -0.521
UniProt Q8K4Z5 (peptide sequence: LTAQFVAR, peptide start residue: 169) | 0.208
UniProt Q8K2I9 (peptide sequence: LGSSGSAQPAR, peptide start residue: 113) | -0.384
UniProt Q8R081 (peptide sequence: SDALETLGFLNHYQMK, peptide start residue: 550) | 0.192
UniProt Q8K411 (peptide sequence: KYLLNCDNMR, peptide start residue: 770) | -1.09
UniProt Q8R015 (peptide sequence: AEVDEEHR, peptide start residue: 155) | -0.485
UniProt Q8K1X4 (peptide sequence: AFYLNRLPASSH, peptide start residue: 1123) | -0.183
UniProt Q8K2D3 (peptide sequence: NVHQRPTVALLCGPHVK, peptide start residue: 330) | -0.12
UniProt Q8K1S5 (peptide sequence: LLDHLEALQDTR, peptide start residue: 197) | -0.292
UniProt Q8QZZ8 (peptide sequence: LQLWDIAGQER, peptide start residue: 75) | 0.0323
UniProt Q8R0C0 (peptide sequence: STDDKEETIQKLETLEK, peptide start residue: 140) | -0.0878
UniProt Q8K114 (peptide sequence: HGFSDIKVEDTAK, peptide start residue: 601) | -0.237
UniProt Q8R0A2 (peptide sequence: TLELPGPSEAGR, peptide start residue: 253) | 0.0248
UniProt Q8K337 (peptide sequence: VVNEELYR, peptide start residue: 642) | 0.205
UniProt Q8K387 (peptide sequence: VSKPVLLGK, peptide start residue: 390) | 0.239
UniProt Q8R1S0 (peptide sequence: EQIMAFASK, peptide start residue: 468) | 0.214
